# Reference: PubChem BioAssay AID540303 (National Center for Advancing Translational Sciences (NCATS), 2011)
# In all, about 330,000 compounds went through this assay and about 1,000 (0.3%) were called active. Inconclusive means that the source gave no clear call. Such entries were picked first, then a sample of the others. Calls come from the whole dose curve; as a rule, active = well fitted inhibition curve with a large enough effect; inconclusive = small, poorly fitted or top-dose-only effect; inactive = no such curve, though single readings can be large or run the other way; tested in mouse RAW 264.7 cells. Potencies of inconclusive entries are doubtful fits and often do not repeat.
# Test: qHTS for Inhibitors of Cell Surface uPA Generation; note: nearly all actives have a fitted effect of over 55% in size
# Conditions: cell surface uPA generation assay; series mostly up to 38.3 µM
# Procedure, shortened: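 RAW 264.7, 4000 cells/well, o/n 37 C; cpd 1:5 dilution, up to 38.3 uM final; 24 h 37 C/5% CO2 with reagent; ATP-Lite lum. High ATP = LF entry blocked.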
# Potency is the fitted concentration of half-maximal effect.
row,Compound,Potency
1,Cc1ccc(/C=C/c2nc3ccccc3c(=O)[nH]2)cc1,"inconclusive: 1.26 µM [inhibitor, full curve, poor fit]"
2,COc1ccccc1C(=O)Nc1ccccc1SC(=O)c1ccccc1OC,"inconclusive: 3.16 µM [inhibitor, partial curve, poor fit]"
3,O=C(c1ccc(Cl)cc1)C1CCN(Cc2ccccc2)CC1,"inconclusive: 28.2 µM [inhibitor, single point]"
4,CCN1C/C(=C/c2cccs2)c2nc3ccccc3c(C(=O)O)c2C1,inactive
5,CCOC(=O)c1sc(NC(=O)C(CC)Sc2nccn2C)nc1C (stereo not drawn),"inconclusive: 11.2 µM [inhibitor, partial curve, poor fit]"
6,O=C(Nc1cc(S(=O)(=O)N2CCOCC2)ccc1N1CCOCC1)c1ccc([N+](=O)[O-])s1,"inconclusive: 2.82 µM [inhibitor, single point]"
7,COc1ccc(N(Cc2cc3ccccc3[nH]c2=O)S(=O)(=O)c2ccc(OC)cc2)cc1,"inconclusive: 11.2 µM [inhibitor, single point]"
8,O=C(NCc1nc2ccccc2[nH]1)C1=C[C@H](c2ccc(C(F)(F)F)cc2)C[C@H](OCc2ccc(CO)cc2)O1,"inconclusive: 12.6 µM [inhibitor, single point]"
9,O=C(O)c1ccc2c(=O)n(-c3ccc(F)cc3)c(=S)[nH]c2c1,inactive
10,CC(=O)c1cccc(NC(=O)c2ccc3c(c2)CCCC3)c1,"inconclusive: 20 µM [inhibitor, single point]"
11,Nc1nonc1-n1nnc(C(=O)N/N=C/c2cccc(Cl)c2Cl)c1CN1CCCC1,inactive
12,COc1ccc(NC(=S)N=Nc2c(O)[nH]c3ccccc23)cc1,"inconclusive: 8.91 µM [inhibitor, single point]"
13,C[C@H]1CN([C@@H](C)CO)C(=O)c2cccc(NC(=O)Nc3ccc(C(F)(F)F)cc3)c2O[C@@H]1CN(C)Cc1ccc(Cl)c(Cl)c1,"inconclusive: 10 µM [inhibitor, single point]"
14,O=C(NC1CCCC1)C(c1ccsc1)N(Cc1ccccc1)C(=O)Cc1cccs1 (stereo not drawn),inactive
15,CC1(C)CC(=O)C2=C(C1)OC(N)=C(C#N)C2c1cn(-c2ccccc2)nc1-c1ccc(F)cc1 (stereo not drawn),"inconclusive: 6.31 µM [inhibitor, partial curve, poor fit]"
16,CN(C)CCCN1c2ccccc2Sc2ccc(Cl)cc21,"inconclusive: 7.08 µM [inhibitor, partial curve, poor fit]"
17,CCCc1cc(=O)[nH]c(SCC(=O)N2CCc3cc(OC)c(OC)cc3C2)n1,"inconclusive: 10 µM [inhibitor, single point]"
18,CC(C)Nc1ccc(C(CC(N)=O)NC(=O)Cc2ccc(Cl)cc2)cc1[N+](=O)[O-] (stereo not drawn),"inconclusive: 7.08 µM [inhibitor, single point]"
19,COc1ccc(Nc2nnc(SCC(=O)NC3CC3)s2)cc1,"inconclusive: 4.47 µM [inhibitor, single point]"
20,CCCN(CC1CC1)C(=S)Nc1ccc(C(C)=O)cc1,inactive
21,CC(C)NC(=O)c1c(O)c2cccc3c2n(c1=O)CCC3,"inconclusive: 0.0708 µM [inhibitor, partial curve, poor fit]"
22,COc1ccccc1-c1cc2ccccc2[nH]1,inactive

row,Compound,Potency
1,Cc1ccc(NC(=O)c2ncn(CC(=O)NCc3ccccc3)n2)cc1C,"inconclusive: 11.2 µM [inhibitor, partial curve]"
2,COc1cccc(/C=N/Nc2nc3ccccc3[nH]2)c1O,"inconclusive: 10 µM [inhibitor, partial curve, poor fit]"
3,COc1ccc2cc(C(=O)NCc3ccccc3)[nH]c2c1,inactive
4,O=C(COC(=O)c1ccccc1C(=O)c1ccc(Cl)c([N+](=O)[O-])c1)NC1CC1,inactive
5,CCOc1ccccc1CNC(=O)C1CCN(c2nnc(C)c3c(C)n(-c4ccc(C)cc4)nc23)CC1,"inconclusive: 10 µM [inhibitor, partial curve, poor fit]"
6,COc1cc2c(C(=O)O)c(C)n(C)c2c2ccccc12,"inconclusive: 0.708 µM [inhibitor, full curve, poor fit]"
7,Cc1cccc(-n2ncc3c2CCCC3NC(=O)c2ccc[n+]([O-])c2)c1C (stereo not drawn),inactive
8,O=C(CSc1nnc(-c2ccc(Cl)cc2)n1Cc1ccco1)c1cccs1,inactive
9,COc1ccc(-c2nc(=S)[nH][nH]2)cc1,inactive
10,O=C(N/C(=C\c1ccc([N+](=O)[O-])cc1)C(=O)N1CCCCC1)c1ccc(Br)o1,"inconclusive: 0.282 µM [inhibitor, full curve]"
11,O=C(CSc1nc2ccccc2o1)Nc1nc(-c2ccccc2)cs1,inactive
12,COc1cc2nc(C3CCC3)n(N)c(=O)c2cc1OC,"inconclusive: 2.82 µM [inhibitor, single point]"
13,Cc1ccc(-c2nc(CS(=O)(=O)CC(=O)N3CCc4ccccc4C3)c(C)o2)cc1,"inconclusive: 11.2 µM [inhibitor, partial curve, poor fit]"
14,COCCNC(=O)c1cc2c(=O)n3cccc(C)c3nc2n1C,"inconclusive: 3.98 µM [inhibitor, single point]"
15,O=C(Cc1csc(NC(=O)Nc2ccc(Cl)cc2)n1)NCc1cccnc1,inactive
16,CCOC(=O)Cc1csc(NC(=O)c2ccc3ccccc3n2)n1,inactive
17,COc1ccc(OC)c(Nc2ncnc3c2cnn3-c2ccccc2)c1,"inconclusive: 3.16 µM [inhibitor, partial curve, poor fit]"
18,Cc1ccccc1OCC(=O)Nc1cccc(S(=O)(=O)NC2=NCCC2)c1,"inconclusive: 22.4 µM [inhibitor, single point]"
19,CN1CCc2c(sc(NC(=O)Cc3ccccc3)c2C#N)C1,"inconclusive: 2.82 µM [inhibitor, single point]"
20,O=C(O)c1cc(NS(=O)(=O)c2ccc(F)cc2)cc(NS(=O)(=O)c2ccc(F)cc2)c1,"inconclusive: 1.12 µM [inhibitor, partial curve, poor fit]"
21,FC(F)(F)c1cccc(-c2nc3nc(Cl)c(Cl)nc3[nH]2)c1,"inconclusive: 2.51 µM [inhibitor, single point]"

# Part of the list above, tab-delimited:
row	Compound	Potency
3	O=C(c1ccc(Cl)cc1)C1CCN(Cc2ccccc2)CC1	inconclusive: 28.2 µM [inhibitor, single point]
10	CC(=O)c1cccc(NC(=O)c2ccc3c(c2)CCCC3)c1	inconclusive: 20 µM [inhibitor, single point]
21	CC(C)NC(=O)c1c(O)c2cccc3c2n(c1=O)CCC3	inconclusive: 0.0708 µM [inhibitor, partial curve, poor fit]
